Values quoted from earlier work in patent US20030056236A1, “Model” (priority 2001, published 2003).
At least one structure is not confirmed: it was looked up by name or label, or the drawing left a doubt.

Tests used:
5-HIAA levels = conditions: after treatment
5-HT and 5-HIAA levels = conditions: plasma of schizophrenic patients

CN1CCN(C2=Nc3cc(Cl)ccc3Nc3ccccc32)CC1 [clozapine]
elevate 5-HIAA levels (5-HIAA levels; rat medial prefrontal cortex): to a lesser extent | effect on 5-HIAA levels in the striatum (5-HIAA levels; rat striatum): no effect | 5-HIAA levels in plasma (5-HT and 5-HIAA levels): elevate | 5-HT levels in plasma (5-HT and 5-HIAA levels): elevate
